In the DeepSol protein solubility set:

Experiment: soluble on expression in E. coli; label from the status in PepcDB or PDB records

Sequence	soluble on expression in E. coli
MSQHKFLFTSESVSEGHPDKMCDQISDAVLDAHLAQDPHAKVACGFDYKTCNVLVALEQQSPEIAAGVHVDKDSDDVGAGDQGIMFGYATDETEEAMPLTLLLSHKLNRKLHELRRSGELEWVRPDSKTQVTIEYASEGGACIPLRVHTVVISTQHSPDISLDDLRKELIVKVIKAVIPANLIDDKTIYHLNPCGSFIIGGPMGDAGLTGRKIIVDTYGGWGAHGGGAFSGKDPTKVDRSAAYAARWVAKSLVKSGLCRRCLVQVSYAIGVAKPLSVMVFSFGTSALNEGELLKIVNDNFDLRPGMIIKDLDLKKPIYEPTAENGHFGHNEFPWEQPRHLQIDVELLKKIGGKTISNGNGIAH	not soluble
MSTEHVSNVYSVESLLSNVEKSSVSPTESIEDRNEFMITEDVMSSWQRMAATISLQQKLLMMQQTMPRPPPVNILGNFPFGFLNAPMFWQQYLRSMAMGIIPQNPESPSASVWNRTPTPPVEIKPFHCQKCTKLFSTIAALEQHQQVHVSDKQFECKQCGKTFKRSSTLSTHLLIHSDTRPYPCEYCGKRFHQKSDMKKHTYIHTGEKPHKCTVCGKAFSQSSNLITHTRKHTGFKPFACDVCGRTFQRKVDRRRHRESHHPGHPEECVSASQISSDLSPKGYMTPPTSNGYLDSSDEFLNVFRLPAELLAIKAEMGEEMEEADDEEEKVLNLSVS	not soluble
MSVEEGMEVELKSEKMDLDDNIPDFVKETVERSGKNPMSLFSELYVHMTGNTPVFDFYNRNQPNGSMKFICVVILNGERIEGNVKSKKKEAKVSCSLKGLEVVLKHVSEYVVPAVKFEEKTTFFEMLREHTYAKFYELCKNNALIYGFEKVIASVFLKINGNLQIIALSTGNKGLRGDKIVNDGTALIDCHAEILARRGLLRFLYSEVLKFSTEPPNSIFTKGKNALVLKPGISFHLFINTAPCGVARIDKKLKPGTSDDLQNSSRLRFKIDKGMGTVLGGASEFEAPQTFDGIMMGERMRTMSCSDKLLRANVLGVQGAILSHFIDPIYYSSIAVAELNNADRLRKAVYSRAATFKPPAPFHVQDVEIGECQVEDTEQSTSAAARSTISSMNWNLADGNTEVVRTSDGMVHDKDMSGADITTPSRLCKKNMAELMITICTLTKTSVDYPISYEELKAGSQEYAAAKKSFITWLRQKDLGIWQRKPREFQMFTIN	not soluble
SNALEVKPEINFVNIGERCNVAGSRKFLRLVNEKKYDEALSIARQQVEDGALVIDVNMDDGLLDARTEMTTFLNLIMSEPEIARVPVMIDSSKWEVIEAGLKCLQGKSIVNSISLKEGEEVFLEHARIIKQYGAATVVMAFDEKGQADTAARKIEVCERAYRLLVDKVGFNPHDIIFDPNVLAVATGIEEHNNYAVDFIEATGWIRKNLPGAHVSGGVSNLSFSFRGNNYIREAMHAVFLYHAIQQGMDMGIVNPGTSVLYSDIPADTLEKIEDVVLNRRPDAAERLIELAEALKETMGG	soluble
TRDAALPGSHSTHGFYENYEPKEILGRGVSSVVRRCIHKPTCKEYAVKIIDVTGGGSFSAEEVQELREATLKEVDILRKVSGHPNIIQLKDTYETNTFFFLVFDLMKKGELFDYLTEKVTLSEKETRKIMRALLEVICALHKLNIVHRDLKPENILLDDDMNIKLTDFGFSCQLDPGEKLREVCGTPSYLAPEIIECSMNDNHPGYGKEVDMWSTGVIMYTLLAGSPPFWHRKQMLMLRMIMSGNYQFGSPEWDDYSDTVKDLVSRFLVVQPQKRYTAEEALAHPFFQQYVVEEVRHF	soluble
